Assay results as given in the supplement of paper PMC6411743.
± gives the standard deviation of the averaged measurements. Only a part is listed here, and it is no random draw. Most entries show no effect beyond the scatter of the controls.

Amino acid sequences for entries named in this document (tags omitted). A change or cut given only in a name is not applied to a line headed by its entry.
UniProt O00170: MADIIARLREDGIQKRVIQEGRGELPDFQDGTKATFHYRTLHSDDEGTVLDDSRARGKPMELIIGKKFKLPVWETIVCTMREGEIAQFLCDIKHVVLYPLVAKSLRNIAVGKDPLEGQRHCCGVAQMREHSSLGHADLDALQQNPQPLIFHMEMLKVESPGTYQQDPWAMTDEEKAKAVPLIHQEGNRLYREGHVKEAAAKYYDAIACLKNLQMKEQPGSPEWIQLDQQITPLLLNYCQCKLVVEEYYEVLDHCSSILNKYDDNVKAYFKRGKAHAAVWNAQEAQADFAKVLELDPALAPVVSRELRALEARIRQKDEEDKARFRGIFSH
UniProt O14966: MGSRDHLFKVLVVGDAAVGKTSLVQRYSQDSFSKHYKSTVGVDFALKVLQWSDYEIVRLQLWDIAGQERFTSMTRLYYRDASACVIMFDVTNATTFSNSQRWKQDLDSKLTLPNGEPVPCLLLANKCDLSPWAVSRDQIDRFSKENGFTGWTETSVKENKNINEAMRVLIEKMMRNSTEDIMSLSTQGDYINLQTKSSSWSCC
UniProt O00231, whole entry: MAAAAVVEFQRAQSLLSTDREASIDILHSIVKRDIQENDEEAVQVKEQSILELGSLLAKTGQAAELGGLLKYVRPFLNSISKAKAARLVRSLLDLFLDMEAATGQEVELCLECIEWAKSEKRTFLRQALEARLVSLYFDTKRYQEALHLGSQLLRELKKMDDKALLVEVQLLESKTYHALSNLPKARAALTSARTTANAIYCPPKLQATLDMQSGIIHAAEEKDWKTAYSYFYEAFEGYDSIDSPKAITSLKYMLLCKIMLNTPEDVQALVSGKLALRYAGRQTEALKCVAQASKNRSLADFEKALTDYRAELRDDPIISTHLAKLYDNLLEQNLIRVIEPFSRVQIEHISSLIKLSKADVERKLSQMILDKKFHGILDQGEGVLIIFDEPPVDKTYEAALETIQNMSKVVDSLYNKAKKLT
UniProt O00116: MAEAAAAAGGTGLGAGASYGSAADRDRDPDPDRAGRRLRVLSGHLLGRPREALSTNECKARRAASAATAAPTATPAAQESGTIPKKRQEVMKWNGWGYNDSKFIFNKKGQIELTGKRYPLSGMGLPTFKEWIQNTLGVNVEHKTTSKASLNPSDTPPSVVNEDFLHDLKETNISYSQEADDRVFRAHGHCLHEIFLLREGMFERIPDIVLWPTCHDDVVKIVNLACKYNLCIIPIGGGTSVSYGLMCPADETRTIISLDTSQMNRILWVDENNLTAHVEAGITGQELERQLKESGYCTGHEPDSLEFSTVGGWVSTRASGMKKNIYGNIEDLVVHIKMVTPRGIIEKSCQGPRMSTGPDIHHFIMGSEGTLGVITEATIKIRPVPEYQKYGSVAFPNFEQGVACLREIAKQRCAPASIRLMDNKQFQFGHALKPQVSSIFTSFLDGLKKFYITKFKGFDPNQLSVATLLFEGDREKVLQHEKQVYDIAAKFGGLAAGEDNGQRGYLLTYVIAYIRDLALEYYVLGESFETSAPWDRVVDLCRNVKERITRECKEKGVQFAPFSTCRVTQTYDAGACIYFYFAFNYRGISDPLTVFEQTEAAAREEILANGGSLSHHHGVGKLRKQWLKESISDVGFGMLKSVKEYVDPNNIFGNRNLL
UniProt Q8IV63: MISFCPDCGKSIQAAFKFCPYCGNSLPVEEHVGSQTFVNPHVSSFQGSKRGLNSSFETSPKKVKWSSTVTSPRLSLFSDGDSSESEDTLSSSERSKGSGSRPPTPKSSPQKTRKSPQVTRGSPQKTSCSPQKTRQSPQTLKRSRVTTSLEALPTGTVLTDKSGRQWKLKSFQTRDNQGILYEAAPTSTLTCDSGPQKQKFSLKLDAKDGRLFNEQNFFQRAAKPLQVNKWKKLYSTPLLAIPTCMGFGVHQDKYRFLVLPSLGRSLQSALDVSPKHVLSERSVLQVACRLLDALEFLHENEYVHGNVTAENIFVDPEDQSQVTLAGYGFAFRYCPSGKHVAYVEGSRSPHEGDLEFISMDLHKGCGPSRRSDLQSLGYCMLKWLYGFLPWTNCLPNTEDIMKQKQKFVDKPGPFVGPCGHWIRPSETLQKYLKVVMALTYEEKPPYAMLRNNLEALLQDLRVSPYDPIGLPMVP
UniProt O14949: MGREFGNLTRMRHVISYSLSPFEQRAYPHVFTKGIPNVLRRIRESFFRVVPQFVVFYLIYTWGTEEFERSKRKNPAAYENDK
UniProt O14657: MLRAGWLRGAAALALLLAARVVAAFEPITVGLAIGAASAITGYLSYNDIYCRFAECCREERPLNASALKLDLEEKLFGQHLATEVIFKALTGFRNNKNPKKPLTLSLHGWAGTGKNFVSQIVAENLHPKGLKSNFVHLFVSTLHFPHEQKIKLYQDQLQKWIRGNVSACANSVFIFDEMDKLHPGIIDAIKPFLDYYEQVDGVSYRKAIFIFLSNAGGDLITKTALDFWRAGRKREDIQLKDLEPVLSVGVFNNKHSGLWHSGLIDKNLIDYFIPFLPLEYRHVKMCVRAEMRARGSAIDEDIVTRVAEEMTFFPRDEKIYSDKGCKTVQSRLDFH
UniProt O00429, whole entry: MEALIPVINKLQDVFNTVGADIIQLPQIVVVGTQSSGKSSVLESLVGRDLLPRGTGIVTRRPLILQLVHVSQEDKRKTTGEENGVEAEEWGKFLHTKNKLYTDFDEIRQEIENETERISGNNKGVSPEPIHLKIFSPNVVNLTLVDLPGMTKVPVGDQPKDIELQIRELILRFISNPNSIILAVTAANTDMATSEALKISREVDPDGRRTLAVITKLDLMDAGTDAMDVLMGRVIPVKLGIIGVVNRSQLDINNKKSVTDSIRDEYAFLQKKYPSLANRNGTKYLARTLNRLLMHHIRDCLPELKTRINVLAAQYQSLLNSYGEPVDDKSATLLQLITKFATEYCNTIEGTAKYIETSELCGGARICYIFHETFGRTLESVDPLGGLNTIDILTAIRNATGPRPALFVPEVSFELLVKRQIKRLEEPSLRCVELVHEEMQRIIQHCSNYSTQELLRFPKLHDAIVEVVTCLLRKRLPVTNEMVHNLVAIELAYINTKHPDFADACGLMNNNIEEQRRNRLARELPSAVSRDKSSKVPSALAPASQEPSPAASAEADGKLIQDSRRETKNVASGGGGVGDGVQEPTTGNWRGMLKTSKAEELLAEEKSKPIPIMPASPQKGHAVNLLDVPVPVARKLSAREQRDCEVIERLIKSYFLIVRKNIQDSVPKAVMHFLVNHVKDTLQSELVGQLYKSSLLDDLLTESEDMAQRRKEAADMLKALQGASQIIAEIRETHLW
UniProt O15294: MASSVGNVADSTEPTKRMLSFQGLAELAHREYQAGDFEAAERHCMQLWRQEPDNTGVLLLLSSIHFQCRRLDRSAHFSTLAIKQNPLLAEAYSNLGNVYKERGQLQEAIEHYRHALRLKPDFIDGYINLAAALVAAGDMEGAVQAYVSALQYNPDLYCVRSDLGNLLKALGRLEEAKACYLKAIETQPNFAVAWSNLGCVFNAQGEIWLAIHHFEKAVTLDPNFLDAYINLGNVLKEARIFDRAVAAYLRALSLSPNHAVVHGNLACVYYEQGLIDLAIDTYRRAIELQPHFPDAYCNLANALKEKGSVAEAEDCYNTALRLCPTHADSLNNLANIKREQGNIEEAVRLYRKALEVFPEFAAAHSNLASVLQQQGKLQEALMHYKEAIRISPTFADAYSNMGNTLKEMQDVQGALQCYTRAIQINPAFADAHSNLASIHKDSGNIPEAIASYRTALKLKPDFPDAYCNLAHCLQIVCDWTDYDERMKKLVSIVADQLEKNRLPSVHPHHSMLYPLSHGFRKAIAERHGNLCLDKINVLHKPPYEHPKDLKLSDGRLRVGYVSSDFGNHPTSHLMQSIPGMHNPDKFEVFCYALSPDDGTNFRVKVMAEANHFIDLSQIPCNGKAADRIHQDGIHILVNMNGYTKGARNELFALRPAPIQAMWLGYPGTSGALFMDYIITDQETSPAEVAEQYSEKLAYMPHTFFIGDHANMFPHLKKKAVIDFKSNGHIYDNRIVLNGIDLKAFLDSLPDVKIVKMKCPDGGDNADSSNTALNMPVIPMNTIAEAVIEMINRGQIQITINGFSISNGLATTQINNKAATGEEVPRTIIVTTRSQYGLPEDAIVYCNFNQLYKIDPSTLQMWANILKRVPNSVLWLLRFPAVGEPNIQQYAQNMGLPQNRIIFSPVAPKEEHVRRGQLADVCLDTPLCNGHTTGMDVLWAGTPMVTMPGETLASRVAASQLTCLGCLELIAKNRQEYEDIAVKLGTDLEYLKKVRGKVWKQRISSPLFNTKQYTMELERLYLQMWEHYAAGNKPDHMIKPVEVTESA
UniProt O43615: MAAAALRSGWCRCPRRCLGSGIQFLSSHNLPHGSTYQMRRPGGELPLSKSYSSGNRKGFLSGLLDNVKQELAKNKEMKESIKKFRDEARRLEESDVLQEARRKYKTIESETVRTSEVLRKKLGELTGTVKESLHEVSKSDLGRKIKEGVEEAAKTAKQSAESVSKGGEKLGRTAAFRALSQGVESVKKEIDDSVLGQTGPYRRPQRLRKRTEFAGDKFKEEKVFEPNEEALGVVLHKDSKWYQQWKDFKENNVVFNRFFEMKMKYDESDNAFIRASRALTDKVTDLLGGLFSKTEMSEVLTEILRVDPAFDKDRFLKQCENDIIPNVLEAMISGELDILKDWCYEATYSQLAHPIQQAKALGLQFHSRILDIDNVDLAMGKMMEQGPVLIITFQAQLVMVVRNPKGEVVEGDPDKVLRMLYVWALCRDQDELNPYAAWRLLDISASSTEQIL
UniProt O43505: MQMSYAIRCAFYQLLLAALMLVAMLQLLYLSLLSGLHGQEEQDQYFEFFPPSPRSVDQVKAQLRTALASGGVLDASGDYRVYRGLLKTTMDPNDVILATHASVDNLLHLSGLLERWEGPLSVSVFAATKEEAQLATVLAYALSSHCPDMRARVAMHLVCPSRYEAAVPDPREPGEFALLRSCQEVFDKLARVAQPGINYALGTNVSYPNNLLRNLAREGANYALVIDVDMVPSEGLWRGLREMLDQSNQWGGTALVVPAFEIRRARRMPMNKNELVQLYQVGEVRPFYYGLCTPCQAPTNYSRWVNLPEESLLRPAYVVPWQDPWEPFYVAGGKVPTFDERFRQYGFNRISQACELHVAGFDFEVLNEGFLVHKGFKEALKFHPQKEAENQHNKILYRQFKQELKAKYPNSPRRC
UniProt O14802: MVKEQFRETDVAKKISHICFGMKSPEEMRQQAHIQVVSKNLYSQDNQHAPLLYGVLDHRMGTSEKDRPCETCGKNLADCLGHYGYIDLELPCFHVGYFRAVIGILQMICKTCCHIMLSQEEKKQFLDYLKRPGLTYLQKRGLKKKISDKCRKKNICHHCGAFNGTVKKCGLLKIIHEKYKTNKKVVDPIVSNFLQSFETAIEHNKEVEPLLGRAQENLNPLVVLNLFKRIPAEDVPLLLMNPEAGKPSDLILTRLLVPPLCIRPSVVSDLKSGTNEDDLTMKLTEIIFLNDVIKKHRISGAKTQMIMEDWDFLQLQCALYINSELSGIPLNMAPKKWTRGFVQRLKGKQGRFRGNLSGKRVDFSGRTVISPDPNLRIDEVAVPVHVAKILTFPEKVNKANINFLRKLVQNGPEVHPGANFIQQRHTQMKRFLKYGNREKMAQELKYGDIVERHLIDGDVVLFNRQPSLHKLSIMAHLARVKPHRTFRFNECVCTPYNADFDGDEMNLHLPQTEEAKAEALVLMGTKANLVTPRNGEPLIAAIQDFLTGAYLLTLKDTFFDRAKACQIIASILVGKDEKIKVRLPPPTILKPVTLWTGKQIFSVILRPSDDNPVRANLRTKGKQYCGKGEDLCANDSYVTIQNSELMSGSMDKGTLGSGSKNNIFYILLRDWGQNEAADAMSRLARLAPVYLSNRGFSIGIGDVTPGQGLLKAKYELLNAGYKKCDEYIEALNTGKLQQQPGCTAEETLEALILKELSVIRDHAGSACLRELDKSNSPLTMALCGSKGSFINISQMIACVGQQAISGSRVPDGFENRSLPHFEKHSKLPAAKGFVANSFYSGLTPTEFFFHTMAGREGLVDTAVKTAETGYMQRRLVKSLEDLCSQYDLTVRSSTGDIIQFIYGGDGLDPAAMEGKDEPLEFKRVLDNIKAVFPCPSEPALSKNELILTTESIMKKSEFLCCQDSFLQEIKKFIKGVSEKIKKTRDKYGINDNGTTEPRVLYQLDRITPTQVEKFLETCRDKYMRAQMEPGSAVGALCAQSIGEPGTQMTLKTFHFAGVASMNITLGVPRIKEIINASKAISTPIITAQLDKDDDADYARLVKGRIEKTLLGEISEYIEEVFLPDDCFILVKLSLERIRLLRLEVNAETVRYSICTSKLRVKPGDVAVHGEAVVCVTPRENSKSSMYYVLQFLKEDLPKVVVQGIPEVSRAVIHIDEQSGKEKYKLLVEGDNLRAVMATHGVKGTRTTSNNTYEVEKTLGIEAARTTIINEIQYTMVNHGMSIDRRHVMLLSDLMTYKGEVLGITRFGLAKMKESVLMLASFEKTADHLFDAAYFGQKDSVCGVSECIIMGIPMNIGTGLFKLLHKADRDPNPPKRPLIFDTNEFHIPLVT

Compound: Nc1ncnc2c1ncn2[C@@H]1O[C@H](COP(=O)(O)OP(=O)(O)NP(=O)(O)O)[C@@H](O)[C@H]1O [adenylyl imidodiphosphate]
Assay: NP40-soluble protein abundance relative to vehicle (solubility fold change) (ratio); higher = more soluble protein in presence of AMP-PNP
Method in brief: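 In three independent experiments, Jurkat crude lysate made by Dounce homogenisation was treated for 10 min at room temperature and then 3 min at 37 °C with eight concentrations ranging from 0.1 to 10 mM. It was then solubilised with 0.8% NP40 plus benzonase for 60 min at 4 °C and ultracentrifuged. The supernatant was TMT-labelled for LC-MS/MS, and each value is the fold change against the detergent-processed vehicle for the same replicate, using vsn-normalised intensities.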

Target | NP40-soluble protein abundance (concentration: 0.1mM) | NP40-soluble protein abundance (concentration: 0.5mM)
SNAP23 (UniProt O00161) | 0.973 ± 0.037 | 0.9746 ± 0.0092
SLC35A4 (UniProt L0R6Q1) | 0.979 ± 0.038 | 1.06 ± 0.09
UniProt O43663 and related entries | 1.04 ± 0.033 | 1.01 ± 0.016
K7ESP4 and related entries (UniProt Q8WVC6) | 1.01 ± 0.054 | 1.06 ± 0.037
TAX1BP3 (UniProt O14907) | 1.01 ± 0.014 | 1.02 ± 0.058
AIP (UniProt O00170) | 0.98111 ± 0.0003 | 0.993 ± 0.018
PRPF3 (UniProt O43395) | 1.04 ± 0.02 | 1.02 ± 0.023
K7ELQ9 and related entries (UniProt Q6UW68) | 0.988 ± 0.015 | 0.9901 ± 0.0062
UniProt O43736 and related entries | 1.03 ± 0.088 | 1 ± 0.085
UniProt O43829 | 1.01 ± 0.042 | 1.03 ± 0.036
M0R0H0 and related entries (UniProt P55899) | 1 ± 0.042 | 0.986 ± 0.028
SCO2 (UniProt O43819) | 1 ± 0.022 | 0.981 ± 0.025
UniProt O43439-5 | 0.998 ± 0.025 | 0.994 ± 0.021
UniProt O43303 and related entries | 1.02 ± 0.014 | 0.994 ± 0.02
UniProt O00592 and related entries | 0.966 ± 0.027 | 0.993 ± 0.018
UniProt O00165 and related entries | 1.01 ± 0.022 | 0.984 ± 0.042
PDLIM1 (UniProt O00151) | 0.973 ± 0.016 | 0.995 ± 0.043
UniProt O14639 and related entries | 1 ± 0.012 | 0.96 ± 0.07
K7EK78 and related entries (UniProt Q86Y39+K7EQ77+K7EP35+K7EMT4+K7EK78) | 0.9955 ± 0.0092 | 1 ± 0.022
K7EPJ5 and related entries (UniProt O60291) | 0.995 ± 0.021 | 1.02 ± 0.047
SART1 (UniProt O43290) | 1.03 ± 0.026 | 1.05 ± 0.052
UniProt O14966 and related entries | 0.988 ± 0.013 | 0.98 ± 0.026
CDIPT (UniProt O14735) | 1.03 ± 0.018 | 0.984 ± 0.031
BACH1 (UniProt O14867) | 0.9883 ± 0.005 | 0.982 ± 0.035
PAPSS1 (UniProt O43252) | 0.993 ± 0.036 | 1.01 ± 0.054
UniProt O43852 and related entries | 0.955 ± 0.022 | 1.01 ± 0.034

Taken from above:
Value of M0R0H0 and related entries (UniProt P55899) under NP40-soluble protein abundance (concentration: 0.5mM): 0.986 ± 0.028
Value of SLC35A4 (UniProt L0R6Q1) under NP40-soluble protein abundance (concentration: 0.5mM): 1.06 ± 0.09
Value of SCO2 (UniProt O43819) under NP40-soluble protein abundance (concentration: 0.5mM): 0.981 ± 0.025

(list continues)

Target | NP40-soluble protein abundance (concentration: 0.1mM) | NP40-soluble protein abundance (concentration: 0.5mM)
PHGDH (UniProt O43175) | 0.831 ± 0.17 | 1 ± 0.028
UniProt O43903 | 1.02 ± 0.015 | 1.04 ± 0.045
PLRG1 (UniProt O43660) | 0.993 ± 0.0041 | 1.03 ± 0.034
UniProt O14646 and related entries | 0.945 ± 0.033 | 0.988 ± 0.058
UniProt O15169 and related entries | 1.024 ± 0.0021 | 1.06 ± 0.035
GAK (UniProt O14976) | 0.9858 ± 0.006 | 0.9709 ± 0.0091
PGRMC1 (UniProt O00264) | 1.03 ± 0.048 | 1.03 ± 0.046
ADAM10 (UniProt O14672) | 0.967 ± 0.031 | 0.973 ± 0.03
M0R3D4 and related entries (UniProt Q9UI14) | 0.983 ± 0.03 | 1.02 ± 0.034
GTPBP1 (UniProt O00178) | 0.973 ± 0.015 | 1.01 ± 0.016
PRMT5 (UniProt O14744) | 0.993 ± 0.025 | 0.967 ± 0.059
PSMD11 (UniProt O00231) | 0.987 ± 0.017 | 0.929 ± 0.044
DAPK3 (UniProt O43293) | 1.02 ± 0.011 | 0.976 ± 0.018
UniProt O00522 and related entries | 0.997 ± 0.013 | 0.995 ± 0.026
NUDT21 (UniProt O43809) | 1.02 ± 0.042 | 1.047 ± 0.01
UniProt O14974 and related entries | 0.9946 ± 0.0094 | 1.02 ± 0.047
UniProt O43566 and related entries | 1.01 ± 0.048 | 1.02 ± 0.042
M0R0F0 and related entries (UniProt P46782) | 1.05 ± 0.019 | 1.04 ± 0.081
UniProt O14776 and related entries | 0.987 ± 0.025 | 1.009 ± 0.0062
SYNJ2 (UniProt O15056) | 0.9582 ± 0.0082 | 0.955 ± 0.011
AGPS (UniProt O00116) | 1 ± 0.011 | 0.995 ± 0.011
PSMD12 (UniProt O00232) | 1.01 ± 0.029 | 0.991 ± 0.04
UniProt O00506 | 1.025 ± 0.0073 | 1 ± 0.018
UniProt O14647 and related entries | 0.9867 ± 0.0055 | 1.08 ± 0.047
UniProt O00409 and related entries | 0.986 ± 0.018 | 1.023 ± 0.0091
NDUFS4 (UniProt O43181) | 0.978 ± 0.068 | 0.978 ± 0.038

Target | NP40-soluble protein abundance (concentration: 0.1mM) | NP40-soluble protein abundance (concentration: 0.5mM)
ACOX3 (UniProt O15254) | 1.01 ± 0.026 | 0.961 ± 0.046
BCAT2 (UniProt O15382) | 1.03 ± 0.043 | 1.03 ± 0.13
SCAMP2 (UniProt O15127) | 0.9683 ± 0.0016 | 0.99 ± 0.011
UniProt O43822 and related entries | 0.983 ± 0.028 | 1.007 ± 0.0082
UniProt O15258 and related entries | 1.03 ± 0.042 | 1.06 ± 0.04
OPLAH (UniProt O14841) | 1 ± 0.024 | 0.975 ± 0.044
K7EK33 and related entries (UniProt Q96EP5) | 0.991 ± 0.018 | 1.03 ± 0.057
L0R819 (UniProt Q9NWL6) | 1 ± 0.026 | 1.01 ± 0.062
M0QYA8 and related entries (UniProt Q8IV63) | 1.05 ± 0.045 | 1.07 ± 0.019
UQCRQ (UniProt O14949) | 0.981 ± 0.073 | 1.05 ± 0.061
K7EKE6 and related entries (UniProt P36776) | 0.997 ± 0.015 | 0.967 ± 0.044
UniProt O43399 and related entries | 0.995 ± 0.036 | 1.04 ± 0.12
K7ELC7 and related entries (UniProt P61353) | 1.051 ± 0.0099 | 1.02 ± 0.023
TOR1B (UniProt O14657) | 0.959 ± 0.074 | 0.984 ± 0.075
K7ER90 and related entries (UniProt O75821) | 1.02 ± 0.061 | 1.05 ± 0.054
UniProt O43172 and related entries | 1.04 ± 0.047 | 1.02 ± 0.043
TRIM38 (UniProt O00635) | 1.006 ± 0.0046 | 1.03 ± 0.036
DNM1L (UniProt O00429) | 1.02 ± 0.012 | 1 ± 0.035
K7ESN3 and related entries (UniProt Q8N2G8) | 1 ± 0.016 | 0.972 ± 0.03
SGTA (UniProt O43765) | 1.01 ± 0.088 | 1.16 ± 0.23
SLC33A1 (UniProt O00400) | 1 ± 0.052 | 1.02 ± 0.051
UniProt O43617 and related entries | 1.01 ± 0.056 | 0.948 ± 0.12
UniProt O15439 and related entries | 0.994 ± 0.01 | 0.964 ± 0.027
M0R208 and related entries (UniProt Q16740) | 0.992 ± 0.03 | 1.01 ± 0.059
ARPC1B (UniProt O15143) | 0.9851 ± 0.0097 | 0.995 ± 0.046
UniProt O00716 and related entries | 1 ± 0.021 | 0.982 ± 0.037

Target | NP40-soluble protein abundance (concentration: 0.1mM) | NP40-soluble protein abundance (concentration: 0.5mM)
SLC9A3R1 (UniProt O14745) | 0.979 ± 0.023 | 0.985 ± 0.04
OGT (UniProt O15294) | 0.9991 ± 0.0039 | 0.982 ± 0.019
UniProt O00139 and related entries | 1.09 ± 0.037 | 1.09 ± 0.034
UniProt O43861 and related entries | 0.994 ± 0.043 | 1.01 ± 0.037
UniProt O00330 and related entries | 1.07 ± 0.14 | 1.01 ± 0.12
DYNC1LI2 (UniProt O43237) | 1.01 ± 0.036 | 1.01 ± 0.059
UniProt O14818 and related entries | 0.971 ± 0.011 | 0.997 ± 0.013
K7ERW4 and related entries (UniProt Q6AI12) | 0.988 ± 0.014 | 0.977 ± 0.044
K7ELL7 and related entries (UniProt P14314) | 0.992 ± 0.025 | 1.03 ± 0.077
UniProt O43291 | 0.987 ± 0.016 | 1.01 ± 0.013
STRN (UniProt O43815) | 1.01 ± 0.038 | 0.986 ± 0.06
K7EMM8 and related entries (UniProt Q49A26) | 0.992 ± 0.023 | 1.02 ± 0.028
GNPAT (UniProt O15228) | 1.02 ± 0.039 | 0.969 ± 0.07
CLIC1 (UniProt O00299) | 1 ± 0.015 | 1.03 ± 0.028
UBFD1 (UniProt O14562) | 0.954 ± 0.043 | 0.996 ± 0.065
POLR1C (UniProt O15160) | 1.02 ± 0.028 | 1 ± 0.029
TIMM44 (UniProt O43615) | 0.9757 ± 0.0032 | 0.971 ± 0.042
PIK3C2A (UniProt O00443) | 1 ± 0.051 | 1 ± 0.017
B4GAT1 (UniProt O43505) | 0.992 ± 0.047 | 0.993 ± 0.014
POLR3A (UniProt O14802) | 1.02 ± 0.035 | 0.975 ± 0.06
STX6 (UniProt O43752) | 1.01 ± 0.028 | 0.988 ± 0.018
XPOT (UniProt O43592) | 1.02 ± 0.021 | 0.99 ± 0.031
K7EQ37 and related entries (UniProt Q70J99) | 1.02 ± 0.037 | 1.01 ± 0.045
PIK3CD (UniProt O00329) | 1.01 ± 0.036 | 0.969 ± 0.039
M0R2S1 and related entries (UniProt P62987) | 0.972 ± 0.091 | 1.04 ± 0.02
UniProt O43684 and related entries | 0.995 ± 0.017 | 1.017 ± 0.01

Full records from above:
DYNC1LI2 (UniProt O43237) as listed: NP40-soluble protein abundance (concentration: 0.1mM): 1.01 ± 0.036; NP40-soluble protein abundance (concentration: 0.5mM): 1.01 ± 0.059
UBFD1 (UniProt O14562) as listed: NP40-soluble protein abundance (concentration: 0.1mM): 0.954 ± 0.043; NP40-soluble protein abundance (concentration: 0.5mM): 0.996 ± 0.065
POLR3A (UniProt O14802) as listed: NP40-soluble protein abundance (concentration: 0.1mM): 1.02 ± 0.035; NP40-soluble protein abundance (concentration: 0.5mM): 0.975 ± 0.06
GNPAT (UniProt O15228) as listed: NP40-soluble protein abundance (concentration: 0.1mM): 1.02 ± 0.039; NP40-soluble protein abundance (concentration: 0.5mM): 0.969 ± 0.07
